# Measured values taken from patent publication US6384083B1, “USE OF ADAMANTANE AMINES OR STRUCTURALLY SIMILAR COMPOUNDS FOR COMBATING BORNA DISEASE VIRUS AND FOR THE PREVENTION AND TREATMENT OF AFFECTIVE DISEASES AND OTHER DISORDERS ASSOCIATED WITH BDV INFECTIONS IN HUMANS AND ANIMALS” (priority 1996, dated 2002).
# Counter-ions that a name gives are not always drawn.
# System: human BDV
# Conditions: 1.2 μg/mL for 6 days, then untreated for following 6 days, daily passages
compound,measurement,value
NC12CC3CC(CC(C3)C1)C2 [amantadine sulfate],BDV infection after the treatment-free interval,could no longer be detected
